This passage reports binding results from paper PMC9267126.

The target of the experiment is T1, AtOFP1 fused to the GAL4 DNA-binding domain (pGBKT7-AtOFP1) (Arabidopsis thaliana) (UniProt Q9LZW2).
T1 sequence: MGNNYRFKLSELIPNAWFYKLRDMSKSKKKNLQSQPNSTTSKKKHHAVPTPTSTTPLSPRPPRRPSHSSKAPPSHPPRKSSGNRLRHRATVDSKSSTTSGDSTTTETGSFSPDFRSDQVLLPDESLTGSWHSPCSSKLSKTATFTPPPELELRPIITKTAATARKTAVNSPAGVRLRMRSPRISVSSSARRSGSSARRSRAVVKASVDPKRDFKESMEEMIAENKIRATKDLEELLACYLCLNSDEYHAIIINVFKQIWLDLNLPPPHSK
Description: two-hybrid; GAL4 system in yeast AH109; AtOFP1 in pGBKT7 (BD), AtKNAT3 or its fragments in pGADT7 (AD); growth on SD/-Leu/-Trp/-His/-Ade.

These are yes or no findings as the source states them, for the method shown. Binding can be weak; no strength is given. Sequences can lack the tags named with a protein.

As to “HD domain of AtKNAT3 fused to the GAL4 activation domain (pGADT7) (Arabidopsis thaliana) (domain or fragment)”, the binding entry is recorded as “binds”.
